PubChem BioAssay AID686943, Drosophila RNAi Screening Center | 2013
The deposit covers about 23,000 reagents; shown is an unselected part of those that have a named target and a result. 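Extra replicates exist only for a retested subset of genes; insulin dose and duration not given; both raised and lowered dpERK matter.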 Reagents against one gene are numbered here. A plus sign joins genes that one reagent is predicted to hit. Not all columns of the deposit are shown. Not given: the amount of reagent, the time to read-out.

Screen: 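Search across the genome for regulators of signalling from receptor tyrosine kinase to ERK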 (primary screen)
Cells: Drosophila S2R+ haemocyte-like cells expressing YFP-tagged ERK (Rolled)
Reagents: long dsRNA against Drosophila genes
Treatment: insulin stimulation versus unstimulated cells; dose and duration not given
Read-out: 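Antibody staining for doubly phosphorylated ERK divided by ERK-YFP signal, as plate z-scores, in insulin-treated and untreated cells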
Scale: replicate 1, z-score of dpERK with insulin and replicate 2, z-score of dpERK with insulin: higher = more active ERK per ERK-YFP after insulin

CG40583 (retired record) gave replicate 1, z-score of dpERK with insulin 0.11; replicate 2, z-score of dpERK with insulin 0.84.
CG9643 gave replicate 1, z-score of dpERK with insulin 0.63; replicate 2, z-score of dpERK with insulin 0.04.
With knock-down of CG34248 the results were replicate 1, z-score of dpERK with insulin -1.22; replicate 2, z-score of dpERK with insulin -0.14.
After knock-down of Srg3 #1, the screen gave replicate 1, z-score of dpERK with insulin -0.64; replicate 2, z-score of dpERK with insulin -0.22.
Knock-down of Srg3 #2 gave: replicate 1, z-score of dpERK with insulin 0.83; replicate 2, z-score of dpERK with insulin -0.51.
imd gave replicate 1, z-score of dpERK with insulin -0.39; replicate 2, z-score of dpERK with insulin -0.42.
With knock-down of Bap60, the record shows replicate 1, z-score of dpERK with insulin -0.72; replicate 2, z-score of dpERK with insulin -1.28.
Against CG18635 the deposit lists replicate 1, z-score of dpERK with insulin 0.52; replicate 2, z-score of dpERK with insulin 0.14.
CG12824 scored replicate 1, z-score of dpERK with insulin 0.66; replicate 2, z-score of dpERK with insulin 0.8.
After knock-down of fat-spondin, the screen gave replicate 1, z-score of dpERK with insulin -0.01; replicate 2, z-score of dpERK with insulin 0.03.
After knock-down of CG11141, the record shows replicate 1, z-score of dpERK with insulin -0.41; replicate 2, z-score of dpERK with insulin -0.2.
With knock-down of CR43087 + CR43086 + CG34002, the record shows replicate 1, z-score of dpERK with insulin 1.62; replicate 2, z-score of dpERK with insulin 0.68.
With knock-down of CG13258, the screen gave replicate 1, z-score of dpERK with insulin 0.09; replicate 2, z-score of dpERK with insulin 0.1.
After knock-down of CG43188 the results were replicate 1, z-score of dpERK with insulin 0.48; replicate 2, z-score of dpERK with insulin 0.11.
Knock-down of PIG-H resulted in: replicate 1, z-score of dpERK with insulin -0.04; replicate 2, z-score of dpERK with insulin 0.06.
Knock-down of CG4271 gave: replicate 1, z-score of dpERK with insulin 0.57; replicate 2, z-score of dpERK with insulin 0.58.
Against Gen, the values are replicate 1, z-score of dpERK with insulin -0.23; replicate 2, z-score of dpERK with insulin 0.28.
Depletion of Ir94b gave: replicate 1, z-score of dpERK with insulin 0.44; replicate 2, z-score of dpERK with insulin 0.68.

3 neighbouring entries already listed, quoted:
CG12824: replicate 1, z-score of dpERK with insulin = 0.66; replicate 2, z-score of dpERK with insulin = 0.8
fat-spondin: replicate 1, z-score of dpERK with insulin = -0.01; replicate 2, z-score of dpERK with insulin = 0.03
CG11141: replicate 1, z-score of dpERK with insulin = -0.41; replicate 2, z-score of dpERK with insulin = -0.2

Next records follow:
Against Ykt6, the entry reads replicate 1, z-score of dpERK with insulin 1.04; replicate 2, z-score of dpERK with insulin 0.44.
Depletion of Adk3 came out at: replicate 1, z-score of dpERK with insulin -0.08; replicate 2, z-score of dpERK with insulin 0.3.
Against beat-Ia the deposit lists replicate 1, z-score of dpERK with insulin -0.14; replicate 2, z-score of dpERK with insulin -0.28.
CG14495 gave replicate 1, z-score of dpERK with insulin 0.04; replicate 2, z-score of dpERK with insulin 0.56.
heph #1 gave replicate 1, z-score of dpERK with insulin 0.31; replicate 2, z-score of dpERK with insulin 0.53.
heph #2 showed replicate 1, z-score of dpERK with insulin -1.09; replicate 2, z-score of dpERK with insulin -1.99.
After knock-down of heph #3 the results were replicate 1, z-score of dpERK with insulin 0.02; replicate 2, z-score of dpERK with insulin -0.74.
Knock-down of heph #4 resulted in: replicate 1, z-score of dpERK with insulin -1.9; replicate 2, z-score of dpERK with insulin -0.5.
With knock-down of Ciao1, the screen gave replicate 1, z-score of dpERK with insulin 0.49; replicate 2, z-score of dpERK with insulin -0.09.
For Fatp2 #1, the values are replicate 1, z-score of dpERK with insulin 0.15; replicate 2, z-score of dpERK with insulin 1.22.
With knock-down of Fatp2 #2 the results were replicate 1, z-score of dpERK with insulin 1.24; replicate 2, z-score of dpERK with insulin 0.03.
Against Fatp2 #3, the values are replicate 1, z-score of dpERK with insulin 0.45; replicate 2, z-score of dpERK with insulin -1.01.
With knock-down of L #1, the record shows replicate 1, z-score of dpERK with insulin -1.88; replicate 2, z-score of dpERK with insulin -2.48.
Depletion of L #2 resulted in: replicate 1, z-score of dpERK with insulin -0.44; replicate 2, z-score of dpERK with insulin -0.03.
